{"source": "patent US20190345261A1", "binders": {"B1": {"name": "anti-ASPH mAb SNS622 (the 622 scFv reformatted into an IgG1 mAb) (antibody, V domains shown)", "VH": "QVQLQQSGPGLVKPSQTLSLTCAISGDSVSSNSAAWNWIRQSPSRGLEWLGRTYYRSKWYNDYAVSVKSRITINPDTSKNQFSLQLNSVTPEDTAVYYCARTGYSSSWVVNFDYWGQGTLVTVSS", "VL": "QPVLTQSPSASGTPGQRVTISCSGSSSNIGSNYVYWYQQLPGTAPKLLIYKNNQRPSGVPDRFSGSKSGTAASLAISGLQSEDEADYYCAAWDDSLRGYVFGTGTKLTVLS"}}, "target": "T1, human aspartate β-hydroxylase (ASPH) (human) (UniProt Q12797)", "T1 sequence (looked up)": "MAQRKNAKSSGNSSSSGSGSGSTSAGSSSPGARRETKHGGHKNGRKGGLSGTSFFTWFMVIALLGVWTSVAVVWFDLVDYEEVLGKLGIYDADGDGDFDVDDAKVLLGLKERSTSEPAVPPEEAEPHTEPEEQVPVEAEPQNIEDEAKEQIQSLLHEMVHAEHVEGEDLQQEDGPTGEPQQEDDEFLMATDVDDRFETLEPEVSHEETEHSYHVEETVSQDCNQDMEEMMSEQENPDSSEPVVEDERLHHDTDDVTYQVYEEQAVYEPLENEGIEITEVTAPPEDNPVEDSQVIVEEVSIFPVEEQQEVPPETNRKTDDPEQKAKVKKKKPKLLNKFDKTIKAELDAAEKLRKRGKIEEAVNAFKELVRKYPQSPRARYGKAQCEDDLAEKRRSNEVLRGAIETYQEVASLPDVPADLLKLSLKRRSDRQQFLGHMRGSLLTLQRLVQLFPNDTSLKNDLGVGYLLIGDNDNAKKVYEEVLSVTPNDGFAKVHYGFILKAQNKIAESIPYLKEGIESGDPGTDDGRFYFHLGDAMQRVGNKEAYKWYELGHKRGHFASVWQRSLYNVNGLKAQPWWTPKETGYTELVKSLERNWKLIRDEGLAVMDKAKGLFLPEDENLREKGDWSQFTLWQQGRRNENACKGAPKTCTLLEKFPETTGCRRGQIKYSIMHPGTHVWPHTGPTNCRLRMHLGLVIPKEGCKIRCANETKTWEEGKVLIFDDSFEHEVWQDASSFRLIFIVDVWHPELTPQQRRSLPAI", "experiment": "flow cytometry, staining of MOLM-14, Raji and H460 cells", "note": "These are yes or no findings as the source states them, for the method shown. Some binding calls cover weakened binding; strength is not graded here.", "data": [{"binder": "B1", "values": [{"measurement": "binding", "value": "binds"}]}]}
